# Among all 2,400 compounds or so, about 20 (0.8%) were called active. Inconclusive results, whose numbers are uncertain, are shown with a selection of clear calls.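 How the source made its calls: active means fitted half-maximal concentration for signal decrease at or below twice the top tested dose, in every repeat run; inconclusive means repeat runs disagree, or flat partial inhibition, or poor fit; inactive means all runs flat, wrong-direction or potency beyond limit.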
# Experiment: GFP reporter loss versus dox-driven RFP – NIH3T3 R4 cells, cherry-pick, set 4, dose response (AID 588827);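 further: 0% = neutral control wells and -100% = didemnin B at 400 nM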
# Conditions: NIH3T3 R4 HSF-1 GFP reporter, heat shock, 48 h; at 19.5 µM (top of the series) unless noted
row,SMILES,"activity change, negative = inhibition"
1,COc1cc(C(=O)N2CCN(C(=O)CC(C)C)CC2)cc(OC)c1OC,inconclusive: 18.9%
2,CC(C)(C)c1ccc(C(=O)Nc2cccc3c(=O)[nH][nH]c(=O)c23)cc1,inconclusive: -2.89%
3,CC(C)C(=O)N1c2ccccc2NC2=C(C(=O)CCC2)C1c1ccc(N(C)C)cc1 (stereo unspecified),inconclusive: -2.96%
4,Cc1cc(C)c2[nH]c(=O)c(C(c3nnnn3CC3CCCO3)N3CCC(C)CC3)cc2c1 (stereo unspecified),inactive: -26.5%
5,CC(C)(C)c1nc(N2CCN(C(=O)c3ccco3)CC2)c2nnn(Cc3ccccc3)c2n1,inconclusive: -45.2%
6,CCN1C(=O)[C@H]2[C@@H](c3ccc(C)cc3)N3C(=O)N(c4ccc(C)cc4)C(=O)[C@@]3(C)[C@H]2C1=O,inactive: 14.5%
7,Cc1nc(NCc2ccco2)c2c(C)c(C)sc2n1,inconclusive: -48.4%
8,Cc1nn(-c2ccccc2)c(Cl)c1C(=O)N1CCN(c2ncnc3c2cnn3-c2ccccc2)CC1,inconclusive: -55.3%
9,CCOc1cc(C(=S)N2CCOCC2)ccc1OS(=O)(=O)c1ccc(OC)cc1,inconclusive: -54.1%
10,CCn1cc(S(=O)(=O)Nc2ccc3c(c2)OCCO3)cn1,inconclusive: 36.6%
11,Cc1ccccc1NC(=O)COC(=O)c1ccc(S(C)(=O)=O)c([N+](=O)[O-])c1,inconclusive: -59.7%
12,CC[C@H]1CN2CCc3cc(OC)c(OC)cc3[C@@H]2C[C@@H]1C[C@H]1NCCc2cc(OC)c(OC)cc21,inconclusive: -78.1%
13,O=C(/C=C/Nc1ccc(F)cc1Br)c1ccccc1,inconclusive: -3.65%
14,Cn1c(=O)c2c(ncn2CC(=O)Nc2cccc(S(=O)(=O)Nc3ccccc3F)c2)n(C)c1=O,inconclusive: -17.4%
15,COc1ccc(/C=N/Nc2ccc(C(=O)O)cc2)cc1Br,inconclusive: 17%
16,CC1=NNC(=O)/C1=C\c1cn(-c2ccccc2)nc1-c1ccc(Cl)cc1,inconclusive: -58.1%
17,O=C(CCCCCn1c(=S)[nH]c2cc3c(cc2c1=O)OCO3)N1CCN(C(=O)c2ccco2)CC1,inactive: -18.7%
18,COc1nc(N)c(C#N)c(-c2ccc(N(C)CCC#N)cc2)c1C#N,inactive: -15.4%
19,NC(=O)c1cc2ccncc2c2ccccc12,inconclusive: -56.3%

row,SMILES,"activity change, negative = inhibition"
1,Cc1ccccc1C(=O)Nc1nnc(CC(=O)N/N=C/c2ccco2)s1,inconclusive: 25.1%
2,CCN(c1ccc(OC)cc1)c1ncnc2nc[nH]c12,inconclusive: -43.3%
3,O=C(CN(Cc1ccccc1Cl)S(=O)(=O)c1ccc(Cl)cc1)N/N=C/c1ccc(C(=O)O)cc1,inactive: 2.93%
4,CCOc1ccc(/C=C2\SC(=O)N(CCNC(=O)C3COc4ccccc4O3)C2=O)cc1OC (stereo unspecified),inconclusive: -32.4%
5,COC(=O)c1ccc(N=NNc2ccc(C(=O)OC)cc2)cc1,inconclusive: 18.6%
6,CCc1ccccc1NC(=O)CSc1nnc(-c2ccncc2)o1,inactive: -11.8%
7,O=c1cc(-c2ccccc2)c2ccc(O)cc2o1,inactive: -13%
8,Cc1cccc(-c2ocnc2C(=O)N2CCN(C(=O)c3cccs3)CC2)c1,inactive: -4.21%
9,O=[N+]([O-])c1cnc(Sc2ccncn2)s1,inconclusive: -59.7%
10,CCN(CC)S(=O)(=O)c1ccc2c(c1)c(=O)c(C(=O)NCc1ccco1)cn2C,inactive: -6.4%
11,CCOC(=O)Cc1csc(NC(=O)NC2(C(F)(F)F)Oc3cc(Cl)c(Cl)cc3O2)n1,inconclusive: 13.7%
12,O=C(c1cc2c(s1)-c1ccccc1OC2)N1CCN(c2ccccc2)CC1,inactive: -1.28%
13,O=C(CCC1CCCNC1)c1ccccc1 (stereo unspecified),inconclusive: 4.57%
14,N#Cc1cc2c(nc1SCC(=O)N1CCOCC1)CCCCC2,inactive: -3.19%
15,CCc1ccc(C(=O)Cn2ncc(Cl)c(Cl)c2=O)cc1,inconclusive: -59%
16,O=C(N1CCCCC1)N1CCN(S(=O)(=O)c2ccccc2)CC1,inactive: -11.3%
17,Cc1ccc(C(=O)Nc2cccc(C(F)(F)F)c2)cc1NC(=O)c1ccno1,inactive: 2.88%
18,CCCn1c(N2CCN(CC(=O)NCc3cccs3)CC2)nc2ccccc21,inconclusive: -11.1%
19,O=C(CCl)Nc1ccc(-c2ccccc2)cc1,inconclusive: -43.9%

row,SMILES,"activity change, negative = inhibition"
1,CC(C)(C)n1ncc2c(=O)n(CC(=O)OCc3ccccc3)cnc21,inconclusive: 3.06%
2,COCC(C)NC(=O)c1ccc2nc(-c3ccccc3)c(-c3ccccc3)nc2c1 (stereo unspecified),inconclusive: 2.21%
3,O=S(=O)(Nc1cccc(Oc2cnccn2)c1)c1ccc(F)cc1,inactive: -8.07%
4,CC(=O)Nc1cc(C(=O)N(C)Cc2ccco2)ccc1Sc1ccc(C)cc1,inconclusive: -1.95%
5,O=C(NCC1CCCO1)c1onc(CSc2ccc(Cl)cc2)c1C(=O)O (stereo unspecified),inconclusive: -16.8%
6,O=C(CCl)NC(Cc1ccccc1)c1ccccc1 (stereo unspecified),inactive: 9.09%
7,O=C1CCCC/C1=N\Nc1ccc(C2CCCCC2)cc1,inactive: -12.6%
8,O=C(c1ccc(-c2ccccc2)c(F)c1)C1CCCN(C(=O)c2cncs2)C1 (stereo unspecified),inconclusive: -20.2%
9,O=C(NC(=S)NC1C2CC3CC(C2)CC1C3)c1ccccc1 (stereo unspecified),inconclusive: 22.1%
10,CC(=O)NC1=NN(C(C)=O)C(c2ccccn2)S1 (stereo unspecified),inconclusive: 2.57%
11,CCOc1ccc(CNC(=O)c2ccc3nc(N4CCOCC4)sc3c2)cc1,inconclusive: 4.65%
12,COc1ccc(-n2c(C)c(C)c3c(N)ncnc32)cc1,inconclusive: -34.4%
13,CC(=O)OCCCNc1cc(Sc2ccc(C)cc2)c2nonc2c1[N+](=O)[O-],inconclusive: -52%
14,CCOc1ccc(NC(=O)C2CCCN(c3nn4c(=O)cc(C)nc4s3)C2)cc1 (stereo unspecified),inactive: 9.81%
15,Nc1nc(Cl)nc2ccc(Br)cc12,inactive: -19%
16,C=CCSc1nc2ccccc2n1C(=O)/C=C/c1cc(OC)c(OC)c(OC)c1,inactive: 2.52%
17,Cc1cccc(NC(=O)CN2C(=O)N/C(=C/c3cc(C)n(C(C)C)c3C)C2=O)c1,inconclusive: -10.4%
18,O=C(Nc1ccc(Cl)cc1)C1CCCN1C(=O)NCc1ccccc1 (stereo unspecified),inconclusive: 14%
